Results are given in words; binding and its absence hold for the method and conditions named. Some binding calls cover weakened binding; strength is not graded here.
Target: eIF2Bα homodimer (eIF2Bα2) (human) (UniProt Q14232)
Test: cryo-EM structure; apo eIF2B decamer from 20 μM eIF2Bβγδε and 11 μM eIF2Bα2 in 20 mM HEPES-KOH, 200 mM KCl, 5 mM MgCl2, 1 mM TCEP, diluted to 750 nM; both purified

B1: eIF2Bα homodimer (eIF2Bα2) (protein, UniProt Q14232 1-305)
chain: MDDKELIEYFKSQMKEDPDMASAVAAIRTLLEFLKRDKGETIQGLRANLTSAIETLCGVDSSVAVSSGGELFLRFISLASLEYSDYSKCKKIMIERGELFLRRISLSRNKIADLCHTFIKDGATILTHAYSRVVLRVLEAAVAAKKRFSVYVTESQPDLSGKKMAKALCHLNVPVTVVLDAAVGYIMEKADLVIVGAEGVVENGGIINKIGTNQMAVCAKAQNKPFYVVAESFKFVRLFPLNQQDVPDKFKYKADTLKVAQTGQDLKEEHPWVDYTAPSLITLLFTDLGVLTPSAVSDELIKLYL
  binding: binds
